Where a name gives a salt, the structure may show the parent alone. Some of the results follow. Single values are uncertain here, since repeats match poorly.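 The human kidney-derived cells carry a stably integrated construct of eight TEAD-binding elements driving luciferase, read by luminescence in a drug-repurposing library screen. A compound counts as a hit when its signal is more than five robust Z scores above the plate mean.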
Test system: HEK293A TEAD-LUC reporter
Test: TEAD-luciferase reporter activity (YAP activation), robust Z score vs plate; higher = stronger YAP/TEAD activation
Conditions: 24 h

SMILES | TEAD-luciferase reporter activity (compound concentration: 200 nM) | TEAD-luciferase reporter activity (compound concentration: 2 uM) | TEAD-luciferase reporter activity (compound concentration: 10 uM)
CCCCC/C=C\C/C=C\C/C=C\C/C=C\CCCC(=O)NCc1ccc(O)c(OC)c1 [Arvanil] | inactive: 0.537 | inactive: 1.02 | inactive: -0.0198
COCC(c1c(O)c2ccccc2oc1=O)c1c(O)c2ccccc2oc1=O | inactive: -0.225 | inactive: -2.01 | inactive: -0.208
C[C@@H]1CNCCN1c1nccnc1OCCOc1cccnc1 | inactive: 0.519 | inactive: -0.847 | inactive: 0.39
CN(C)Cc1nc(-c2ncn3c2CN(C)C(=O)c2c(Cl)cccc2-3)no1 | inactive: -1.28 | inactive: -0.148 | inactive: -0.468
CC(C)C12C=CC(C)(CC1)OO2 (stereo not given) | inactive: 1.12 | inactive: -0.6 | inactive: -1.82
c1cc(Cc2c[nH]cn2)ccn1 [Immethridine] | inactive: -0.098 | inactive: 0.252 | inactive: 0.22
NC1C2C=CCC1c1ccc(Cl)cc1C2 (stereo not given) | inactive: -0.505 | inactive: 0.00791 | inactive: 2.56
CC(C)(N)Cc1ccc(Cl)cc1 | inactive: -0.647 | inactive: 0.368 | inactive: -1.49
O=P1(O)OP(=O)(O)[O][Pt]2([NH2+][C@@H]3CCCC[C@H]3[NH2+]2)[O]1 (stereo not given in full) | inactive: -0.579 | inactive: 0.607 | inactive: 3.16
CCCCCc1cc(O)c2c(c1)OC(C)(C)c1ccc(C)cc1-2 [Cannabinol] | inactive: -0.25 | inactive: 0.114 | inactive: 0.473
CN(C)C1CC(c2ccccc2)c2ccccc21 (stereo not given) | inactive: 1.18 | inactive: -1.17 | inactive: 3.19
CN1C(=O)N(c2ccc(C#N)c(C(F)(F)F)c2)C(=O)[C@@]1(CO)c1ccccc1 | inactive: 0.408 | inactive: -0.133 | inactive: -0.667
COc1ccc(CN2CCNCC2)c(OC)c1OC [Trimetazidine] | inactive: 0.0308 | inactive: -0.943 | inactive: -0.386
C#CC(O)(/C=C/Cl)CC (stereo not given) [Ethchlorvynol] | inactive: 2.11 | inactive: -1.06 | inactive: -1.48
CCCCCCC1(CC)C(=O)NC(=O)NC1=O | inactive: -0.496 | inactive: 0.00159 | inactive: 1.09
CN1C2CCC1CC(OC(=O)c1cc(Cl)cc(Cl)c1)C2 (stereo not given) [Bemesetron] | inactive: 2.43 | inactive: -1.73 | 
CCOP(=S)(OCC)Oc1ccc2c(C)cc(=O)oc2c1C | inactive: -2.65 | inactive: -1.15 | inactive: 2.29

SMILES | TEAD-luciferase reporter activity (compound concentration: 200 nM) | TEAD-luciferase reporter activity (compound concentration: 2 uM) | TEAD-luciferase reporter activity (compound concentration: 10 uM)
O=C(CCCN1CCC2(CC1)C(=O)NCN2c1ccccc1)c1ccc(F)cc1 [Spiroperidol] | inactive: -0.695 | inactive: -1.21 | inactive: -1.75
CN1CC[C@]23c4c5ccc(O)c4O[C@H]2[C@@H](O)C=C[C@H]3[C@H]1C5 | inactive: 0.495 |  | inactive: 0.675
C#C[C@]1(O)CC[C@H]2[C@@H]3CC[C@H]4C[C@H](O)CC[C@]4(C)[C@H]3CC[C@@]21C [Apoptone] | inactive: -1.08 | inactive: 2.92 | inactive: -1.29
CC[C@H]1CN2CCc3cc(OC)c(OC)cc3[C@@H]2C[C@@H]1C[C@H]1NCCc2cc(O)c(OC)cc21 [Cephaeline] | inactive: 0.47 | inactive: -1.66 | inactive: -1.28
CN[C@@H]1CC[C@@H](c2ccccc2)c2ccccc21 | inactive: 1.24 | inactive: -1.13 | inactive: -1.24
c1ccc2nc(N3CCNCC3)ccc2c1 | inactive: -1.57 | inactive: -0.709 | inactive: -0.349
OCc1cccc(Cc2c[nH]cn2)c1O | active: 5.32 | inactive: -1.04 | inactive: 0.771
O=C1CC[C@@]2(O)[C@H]3Cc4ccc(O)c5c4[C@@]2(CCN3)[C@H]1O5 [Noroxymorphone hydrochloride] | inactive: -0.0725 |  | inactive: -1.04
CCC(O)(c1cccc(OC)c1)C(C)CN(C)C (stereo not given) | inactive: -0.78 | inactive: -0.435 | inactive: 0.577
CC(C)C[C@H](NC(=O)[C@@H](N)CCCCN)C(=O)N[C@H](C(=O)N[C@H](C(=O)N[C@H](C(=O)NCC(=O)N[C@@H](C)C(=O)N[C@@H](CS)C(=O)NCC(=O)N[C@H](C(=O)NCC(=O)N[C@@H](CCCCN)C(=O)N[C@@H](CO)C(=O)O)C(C)C)C(C)C)C(C)C)C(C)C | inactive: -0.251 | inactive: -0.594 | inactive: -0.277
CN1C(=O)CN=C(c2ccccc2F)c2cc([N+](=O)[O-])ccc21 [Flunitrazepam] | inactive: -1.35 | inactive: -0.231 | inactive: 0.829
CC(=O)N[C@@H]1[C@@H](O[C@H]2O[C@@H](C(=O)O)[C@H](O)[C@@H](O)[C@@H]2O)[C@@H](OS(=O)(=O)O[O-])[C@@H](CO)O[C@H]1O | inactive: 1.53 | inactive: 0.491 | inactive: 1.88
[O-][I+2]([O-])[O-] | inactive: -1.48 |  | inactive: 3.39
CC[C@H](C)[C@H](NC(=O)[C@H](CC(C)C)NC(=O)[C@H](CC(C(=O)O)C(=O)O)NC(=O)[C@H](CCC(N)=O)NC(=O)[C@H](CC(N)=O)NC(=O)[C@H](CC(C(=O)O)C(=O)O)NC(=O)[C@H](CCC(N)=O)NC(=O)[C@H](CC(C)C)NC(=O)[C@H](CC(C(=O)O)C(=O)O)NC(=O)[C@H](CC(C(=O)O)C(=O)O)NC(=O)[C@H](CCC(=O)O)NC(=O)CN)C(=O)N[C@@H](CCCNC(=N)N)C(=O)N[C@@H](CC(C(=O)O)C(=O)O)C(=O)N[C@@H](CCCCN)C(=O)N[C@@H](CO)C(=O)N[C@@H](CC(N)=O)C(N)=O [Conantokin G] | inactive: 0.307 | inactive: -1.12 | inactive: -1.65
CCOC(C(=O)OCCN(C)C)(c1ccccc1)c1ccccc1 [Dimenoxadol] | inactive: -0.669 | inactive: 1.43 | inactive: 0.0311
CC(C)(C)NCC(O)c1ccccc1F (stereo not given) [flerobuterol] | inactive: 0.124 | inactive: -1.09 | inactive: -0.828

Quoted at random: 2 records from the list
SMILES | TEAD-luciferase reporter activity (compound concentration: 200 nM) | TEAD-luciferase reporter activity (compound concentration: 2 uM) | TEAD-luciferase reporter activity (compound concentration: 10 uM)
CN1CC[C@]23c4c5ccc(O)c4O[C@H]2[C@@H](O)C=C[C@H]3[C@H]1C5 | inactive: 0.495 |  | inactive: 0.675
CN1C(=O)CN=C(c2ccccc2F)c2cc([N+](=O)[O-])ccc21 [Flunitrazepam] | inactive: -1.35 | inactive: -0.231 | inactive: 0.829
